Data reported in PMC6405930, “Conservation of the Amyloid Interactome Across Diverse Fibrillar Structures” (Scientific Reports, 2019).

B1: Vitamin D-binding protein: CSF protein bound to fibrils (protein, UniProt P02774 17-474, looked up)
Vitamin D-binding protein: LERGRDYEKNKVCKEFSHLGKEDFTSLSLVLYSRKFPSGTFEQVSQLVKEVVSLTEACCAEGADPDCYDTRTSALSAKSCESNSPFPVHPGTAECCTKEGLERKLCMAALKHQPQEFPTYVEPTNDEICEAFRKDPKEYANQFMWEYSTNYGQAPLSLLVSYTKSYLSMVGSCCTSASPTVCFLKERLQLKHLSLLTTLSNRVCSQYAAYGEKKSRLSNLIKLAQKVPTADLEDVLPLAEDITNILSKCCESASEDCMAKELPEHTVKLCDNLSTKNSKFEDCCQEKTAMDVFVCTYFMPAAQLPELPDVELPTNKDVCDPGNTKVMDKYTFELSRRTHLPEVFLSKVLEPTLKSLGECCDVEDSTTCFNAKGPLLKKELSSFIDKGQELCADYSENTFTEYKKKLAERLKAKLPDATPTELAKLVNKHSDFASNCCSINSPPLYCDSEIDAELKNIL
B2: Cystatin-C: CSF protein bound to fibrils (protein, UniProt P01034 27-146, looked up)
Cystatin-C: SSPGKPPRLVGGPMDASVEEEGVRRALDFAVGEYNKASNDMYHSRALQVVRARKQIVAGVNYFLDVELGRTTCTKTQPNLDNCPFHDQPHLKRKAFCSFQIYAVPWQGTMTLSKSTCQDA
B3: α2-HS-glycoprotein: CSF protein bound to fibrils (protein, UniProt P02765 19-300; P02765 341-367, looked up)
Alpha-2-HS-glycoprotein chain … 1: APHGPGLIYRQPNCDDPETEEAALVAIDYINQNLPWGYKHTLNQIDEVKVWPQQPSGELFEIEIDTLETTCHVLDPTPVARCSVRQLKEHAVEGDCDFQLLKLDGKFSVVYAKCDSSPDSAEDVRKVCQDCPLLAPLNDTRVVHAAKAALAAFNAQNNGSNFQLEEISRAQLVPLPPSTYVEFTVSGTDCVAKEATEAAKCNLLAEKQYGFCKATLSEKLGGAEVAVTCMVFQTQPVSSQPQPEGANEAVPTPVVDPDAPPSPPLGAPGLPPAGSPPDSHVL
Alpha-2-HS-glycoprotein chain … 2: TVVQPSVGAAAGPVVPPCPGRIRHFKV
B4: Amyloid-like protein 1: CSF protein bound to fibrils (protein, UniProt P51693 39-650, looked up)
Amyloid beta precursor like …: SLAGGSPGAAEAPGSAQVAGLCGRLTLHRDLRTGRWEPDPQRSRRCLRDPQRVLEYCRQMYPELQIARVEQATQAIPMERWCGGSRSGSCAHPHHQVVPFRCLPGEFVSEALLVPEGCRFLHQERMDQCESSTRRHQEAQEACSSQGLILHGSGMLLPCGSDRFRGVEYVCCPPPGTPDPSGTAVGDPSTRSWPPGSRVEGAEDEEEEESFPQPVDDYFVEPPQAEEEEETVPPPSSHTLAVVGKVTPTPRPTDGVDIYFGMPGEISEHEGFLRAKMDLEERRMRQINEVMREWAMADNQSKNLPKADRQALNEHFQSILQTLEEQVSGERQRLVETHATRVIALINDQRRAALEGFLAALQADPPQAERVLLALRRYLRAEQKEQRHTLRHYQHVAAVDPEKAQQMRFQVHTHLQVIEERVNQSLGLLDQNPHLAQELRPQIQELLHSEHLGPSELEAPAPGGSSEDKGGLQPPDSKDDTPMTLPKGSTEQDAASPEKEKMNPLEQYERKVNASVPRGFPFHSSEIQRDELAPAGTGVSREAVSGLLIMGAGGGSLIVLSMLLLRRKKPYGAISHGVVEVDPMLTLEEQQLRELQRHGYENPTYRFLEERP
B5: Fibulin-1: CSF protein bound to fibrils (protein, UniProt P23142 30-703, looked up)
Fibulin-1: DVLLEACCADGHRMATHQKDCSLPYATESKECRMVQEQCCHSQLEELHCATGISLANEQDRCATPHGDNASLEATFVKRCCHCCLLGRAAQAQGQSCEYSLMVGYQCGQVFQACCVKSQETGDLDVGGLQETDKIIEVEEEQEDPYLNDRCRGGGPCKQQCRDTGDEVVCSCFVGYQLLSDGVSCEDVNECITGSHSCRLGESCINTVGSFRCQRDSSCGTGYELTEDNSCKDIDECESGIHNCLPDFICQNTLGSFRCRPKLQCKSGFIQDALGNCIDINECLSISAPCPIGHTCINTEGSYTCQKNVPNCGRGYHLNEEGTRCVDVDECAPPAEPCGKGHRCVNSPGSFRCECKTGYYFDGISRMCVDVNECQRYPGRLCGHKCENTLGSYLCSCSVGFRLSVDGRSCEDINECSSSPCSQECANVYGSYQCYCRRGYQLSDVDGVTCEDIDECALPTGGHICSYRCINIPGSFQCSCPSSGYRLAPNGRNCQDIDECVTGIHNCSINETCFNIQGGFRCLAFECPENYRRSAATLQQEKTDTVRCIKSCRPNDVTCVFDPVHTISHTVISLPTFREFTRPEEIIFLRAITPPHPASQANIIFDITEGNLRDSFDIIKRYMDGMTVGVVRQVRPIVGPFHAVLKLEMNYVVGGVVSHRNVVNVHIFVSEYWF
B6: SPARC-like protein 1: CSF protein bound to fibrils (protein, UniProt Q14515 17-664, looked up)
SPARC-like protein 1: IPTNARLLSDHSKPTAETVAPDNTAIPSLRAEAEENEKETAVSTEDDSHHKAEKSSVLKSKEESHEQSAEQGKSSSQELGLKDQEDSDGHLSVNLEYAPTEGTLDIKEDMSEPQEKKLSENTDFLAPGVSSFTDSNQQESITKREENQEQPRNYSHHQLNRSSKHSQGLRDQGNQEQDPNISNGEEEEEKEPGEVGTHNDNQERKTELPREHANSKQEEDNTQSDDILEESDQPTQVSKMQEDEFDQGNQEQEDNSNAEMEEENASNVNKHIQETEWQSQEGKTGLEAISNHKETEEKTVSEALLMEPTDDGNTTPRNHGVDDDGDDDGDDGGTDGPRHSASDDYFIPSQAFLEAERAQSIAYHLKIEEQREKVHENENIGTTEPGEHQEAKKAENSSNEEETSSEGNMRVHAVDSCMSFQCKRGHICKADQQGKPHCVCQDPVTCPPTKPLDQVCGTDNQTYASSCHLFATKCRLEGTKKGHQLQLDYFGACKSIPTCTDFEVIQFPLRMRDWLKNILMQLYEANSEHAGYLNEKQRNKVKKIYLDEKRLLAGDHPIDLLLRDFKKNYHMYVYPVHWQFSELDQHPMDRVLTHSELAPLRASLVPMEHCITRFFEECDPNKDKHITLKEWGHCFGIKEEDIDENLLF
B7: Mimecan: CSF protein bound to fibrils (protein, UniProt P20774 21-298, looked up)
Mimecan: PPTQQDSRIIYDYGTDNFEESIFSQDYEDKYLDGKNIKEKETVIIPNEKSLQLQKDEAITPLPPKKENDEMPTCLLCVCLSGSVYCEEVDIDAVPPLPKESAYLYARFNKIKKLTAKDFADIPNLRRLDFTGNLIEDIEDGTFSKLSLLEELSLAENQLLKLPVLPPKLTLFNAKYNKIKSRGIKANAFKKLNNLTFLYLDHNALESVPLNLPESLRVIHLQFNNIASITDDTFCKANDTSYIRDRIEEIRLEGNPIVLGKHPNSFICLKRLPIGSYF
B8: Calsyntenin-1: CSF protein bound to fibrils (protein, UniProt O94985 29-981, looked up)
Calsyntenin-1: ARVNKHKPWLEPTYHGIVTENDNTVLLDPPLIALDKDAPLRFAESFEVTVTKEGEICGFKIHGQNVPFDAVVVDKSTGEGVIRSKEKLDCELQKDYSFTIQAYDCGKGPDGTNVKKSHKATVHIQVNDVNEYAPVFKEKSYKATVIEGKQYDSILRVEAVDADCSPQFSQICSYEIITPDVPFTVDKDGYIKNTEKLNYGKEHQYKLTVTAYDCGKKRATEDVLVKISIKPTCTPGWQGWNNRIEYEPGTGALAVFPNIHLETCDEPVASVQATVELETSHIGKGCDRDTYSEKSLHRLCGAAAGTAELLPSPSGSLNWTMGLPTDNGHDSDQVFEFNGTQAVRIPDGVVSVSPKEPFTISVWMRHGPFGRKKETILCSSDKTDMNRHHYSLYVHGCRLIFLFRQDPSEEKKYRPAEFHWKLNQVCDEEWHHYVLNVEFPSVTLYVDGTSHEPFSVTEDYPLHPSKIETQLVVGACWQEFSGVENDNETEPVTVASAGGDLHMTQFFRGNLAGLTLRSGKLADKKVIDCLYTCKEGLDLQVLEDSGRGVQIQAHPSQLVLTLEGEDLGELDKAMQHISYLNSRQFPTPGIRRLKITSTIKCFNEATCISVPPVDGYVMVLQPEEPKISLSGVHHFARAASEFESSEGVFLFPELRIISTITREVEPEGDGAEDPTVQESLVSEEIVHDLDTCEVTVEGEELNHEQESLEVDMARLQQKGIEVSSSELGMTFTGVDTMASYEEVLHLLRYRNWHARSLLDRKFKLICSELNGRYISNEFKVEVNVIHTANPMEHANHMAAQPQFVHPEHRSFVDLSGHNLANPHPFAVVPSTATVVIVVCVSFLVFMIILGVFRIRAAHRRTMRDQDTGKENEMDWDDSALTITVNPMETYEDQHSSEEEEEEEEEEESEDGEEEDDITSAESESSEEEEGEQGDPQNATRQQQLEWDDSTLSY
B9: EGF-containing fibulin-like extracellular matrix protein 1: CSF protein bound to fibrils (protein, UniProt Q12805 18-493, looked up)
EGF-containing fibulin-like …: QDTEETITYTQCTDGYEWDPVRQQCKDIDECDIVPDACKGGMKCVNHYGGYLCLPKTAQIIVNNEQPQQETQPAEGTSGATTGVVAASSMATSGVLPGGGFVASAAAVAGPEMQTGRNNFVIRRNPADPQRIPSNPSHRIQCAAGYEQSEHNVCQDIDECTAGTHNCRADQVCINLRGSFACQCPPGYQKRGEQCVDIDECTIPPYCHQRCVNTPGSFYCQCSPGFQLAANNYTCVDINECDASNQCAQQCYNILGSFICQCNQGYELSSDRLNCEDIDECRTSSYLCQYQCVNEPGKFSCMCPQGYQVVRSRTCQDINECETTNECREDEMCWNYHGGFRCYPRNPCQDPYILTPENRCVCPVSNAMCRELPQSIVYKYMSIRSDRSVPSDIFQIQATTIYANTINTFRIKSGNENGEFYLRQTSPVSAMLVLVKSLSGPREHIVDLEMLTVSSIGTFRTSSVLRLTIIVGPFSF
B10: Ig μ chain C region: plasma protein bound to fibrils (protein, UniProt P01871 1-474, looked up)
Immunoglobulin heavy constant …: GSASAPTLFPLVSCENSPSDTSSVAVGCLAQDFLPDSITFSWKYKNNSDISSTRGFPSVLRGGKYAATSQVLLPSKDVMQGTDEHVVCKVQHPNGNKEKNVPLPVIAELPPKVSVFVPPRDGFFGNPRKSKLICQATGFSPRQIQVSWLREGKQVGSGVTTDQVQAEAKESGPTTYKVTSTLTIKESDWLGQSMFTCRVDHRGLTFQQNASSMCVPDQDTAIRVFAIPPSFASIFLTKSTKLTCLVTDLTTYDSVTISWTRQNGEAVKTHTNISESHPNATFSAVGEASICEDDWNSGERFTCTVTHTDLPSPLKQTISRPKGVALHRPDVYLLPPAREQLNLRESATITCLVTGFSPADVFVQWMQRGQPLSPEKYVTSAPMPEPQAPGRYFAHSILTVSEEEWNTGETYTCVVAHEALPNRVTERTVDKSTEGEVSADEEGFENLWATASTFIVLFLLSLFYSTTVTLFKVK

Assay: In-solution digest of CSF, quantitative MS/MS (relative protein composition)
Parameters: species or system human; key to Identification status: CSF: *: Identified, but not quantified; —: Not identified in any of the samples
Details: original CSF, no fibrils

| Molecule | Relative composition of CSF proteins: CSF |
| --- | --- |
| B1 | 0.0 ± 0.0 % of total protein |
| B2 | 4.6 ± 0.3 % of total protein |
| B3 | 0.2 ± 0.0 % of total protein |

Same assay, conditions: original CSF, symbol cells

| Molecule | Identification status: CSF |
| --- | --- |
| B4 | * |
| B5 | * |
| B6 | * |
| B7 | * |
| B8 | * |
| B9 | * |

Assay: In-solution digest of plasma, quantitative MS/MS (relative protein composition)
Parameters: species or system human
Details: original plasma, no fibrils

| Molecule | Relative composition of plasma proteins: Plasma |
| --- | --- |
| B10 | 0.3 ± 0.0 % of total protein |
